According to US7101854B2 (Sankt-Peterburgskaya Obschestvennaya Organizatsiya …, priority 2000, dated 2006):

Experiment: general procedure: solution-phase peptide synthesis; N,N'-dicyclohexylcarbodiimide / N-oxybenzotriazol

Substance: H-Lys-Glu-Asp-Ala-OH
- step yield (late stage modification step): 95%
- final HPLC purity (purification step, 220 nm): 98.75%

Substance: Cbz-K(Cbz)E(OBn)D(OBn)A-OBn
- step yield (coupling step): 64%

*: point of attachment. Cbz = O=C(OCc1ccccc1)*; OBn = c1ccc(CO*)cc1
